Source: US20220306751A1 (MYTHIC THERAPEUTICS, published 2022)
These are yes or no findings as the source states them, for the method shown. Some results given as binding are weak or reduced against the parent protein; the word gives no strength.

T1: CD123 protein (R&D Systems Catalog No. 301-R3-025/CF) (Homo sapiens (Human)) (UniProt P26951)
T1 sequence: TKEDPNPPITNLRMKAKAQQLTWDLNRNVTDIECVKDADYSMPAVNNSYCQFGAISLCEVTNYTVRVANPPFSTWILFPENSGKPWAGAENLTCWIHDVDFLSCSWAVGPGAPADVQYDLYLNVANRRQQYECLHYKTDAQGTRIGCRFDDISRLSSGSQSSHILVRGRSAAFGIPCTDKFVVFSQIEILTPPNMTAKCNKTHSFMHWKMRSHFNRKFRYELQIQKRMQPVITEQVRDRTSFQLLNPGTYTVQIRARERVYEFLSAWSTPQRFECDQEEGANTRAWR

B1: MYT5448 (antibody, V domains shown)
VH: EVQLLESGGGLVQPGGSLRLSCAVSDYSIHSGYYWNWIRQAPGKKLEWMGYISYDGSNNYNPSLKNGRITISRDTSKNTFYLQMNSLRAEDTAVYYCARGEGFYFDSWGQGTLVTVSS
VL: EIVLTQSPGTLSLSPGERATLSCKSSQSLFFGSTQKNYLAWYQQKPGQAPRLLIYWASTRESGIPDRFSGSGSGTDFTLTISRLEPEDFAVYYCQQYYNYPWTFGQGTKLEIK
B2: MYT5449 (antibody, V domains shown)
VH: EVQLLESGGGLVQPGGSLRLSCAVSDYSITHGYYWNWIRQAPGKKLEWMGYISYDGSNNYNPSLKNGRITISRDTSKNTFYLQMNSLRAEDTAVYYCARGEGFYFDSWGQGTLVTVSS
VL: EIVLTQSPGTLSLSPGERATLSCKSSQSLFFGSTQKNYLAWYQQKPGQAPRLLIYWASTRESGIPDRFSGSGSGTDFTLTISRLEPEDFAVYYCQQYYNYPWTFGQGTKLEIK
B3: MYT5451 (antibody, V domains shown)
VH: EVQLLESGGGLVQPGGSLRLSCAVSDYSITSGHYWNWIRQAPGKKLEWMGYISYDGSNNYNPSLKNGRITISRDTSKNTFYLQMNSLRAEDTAVYYCARGEGFYFDSWGQGTLVTVSS
VL: EIVLTQSPGTLSLSPGERATLSCKSSQSLFFGSTQKNYLAWYQQKPGQAPRLLIYWASTRESGIPDRFSGSGSGTDFTLTISRLEPEDFAVYYCQQYYNYPWTFGQGTKLEIK
B4: MYT5456 (antibody, V domains shown)
VH: EVQLLESGGGLVQPGGSLRLSCAVSDYSITSGYYWNWIRQAPGKKLEWMGYHSYDGSNNYNPSLKNGRITISRDTSKNTFYLQMNSLRAEDTAVYYCARGEGFYFDSWGQGTLVTVSS
VL: EIVLTQSPGTLSLSPGERATLSCKSSQSLFFGSTQKNYLAWYQQKPGQAPRLLIYWASTRESGIPDRFSGSGSGTDFTLTISRLEPEDFAVYYCQQYYNYPWTFGQGTKLEIK
B5: MYT5459 (antibody, V domains shown)
VH: EVQLLESGGGLVQPGGSLRLSCAVSDYSITSGYYWNWIRQAPGKKLEWMGYISYHGSNNYNPSLKNGRITISRDTSKNTFYLQMNSLRAEDTAVYYCARGEGFYFDSWGQGTLVTVSS
VL: EIVLTQSPGTLSLSPGERATLSCKSSQSLFFGSTQKNYLAWYQQKPGQAPRLLIYWASTRESGIPDRFSGSGSGTDFTLTISRLEPEDFAVYYCQQYYNYPWTFGQGTKLEIK
B6: MYT5460 (antibody, V domains shown)
VH: EVQLLESGGGLVQPGGSLRLSCAVSDYSITSGYYWNWIRQAPGKKLEWMGYISYDHSNNYNPSLKNGRITISRDTSKNTFYLQMNSLRAEDTAVYYCARGEGFYFDSWGQGTLVTVSS
VL: EIVLTQSPGTLSLSPGERATLSCKSSQSLFFGSTQKNYLAWYQQKPGQAPRLLIYWASTRESGIPDRFSGSGSGTDFTLTISRLEPEDFAVYYCQQYYNYPWTFGQGTKLEIK
B7: MYT5461 (antibody, V domains shown)
VH: EVQLLESGGGLVQPGGSLRLSCAVSDYSITSGYYWNWIRQAPGKKLEWMGYISYDGHNNYNPSLKNGRITISRDTSKNTFYLQMNSLRAEDTAVYYCARGEGFYFDSWGQGTLVTVSS
VL: EIVLTQSPGTLSLSPGERATLSCKSSQSLFFGSTQKNYLAWYQQKPGQAPRLLIYWASTRESGIPDRFSGSGSGTDFTLTISRLEPEDFAVYYCQQYYNYPWTFGQGTKLEIK
B8: MYT5462 (antibody, V domains shown)
VH: EVQLLESGGGLVQPGGSLRLSCAVSDYSITSGYYWNWIRQAPGKKLEWMGYISYDGSHNYNPSLKNGRITISRDTSKNTFYLQMNSLRAEDTAVYYCARGEGFYFDSWGQGTLVTVSS
VL: EIVLTQSPGTLSLSPGERATLSCKSSQSLFFGSTQKNYLAWYQQKPGQAPRLLIYWASTRESGIPDRFSGSGSGTDFTLTISRLEPEDFAVYYCQQYYNYPWTFGQGTKLEIK
B9: MYT5463 (antibody, V domains shown)
VH: EVQLLESGGGLVQPGGSLRLSCAVSDYSITSGYYWNWIRQAPGKKLEWMGYISYDGSNHYNPSLKNGRITISRDTSKNTFYLQMNSLRAEDTAVYYCARGEGFYFDSWGQGTLVTVSS
VL: EIVLTQSPGTLSLSPGERATLSCKSSQSLFFGSTQKNYLAWYQQKPGQAPRLLIYWASTRESGIPDRFSGSGSGTDFTLTISRLEPEDFAVYYCQQYYNYPWTFGQGTKLEIK
B10: MYT5464 (antibody, V domains shown)
VH: EVQLLESGGGLVQPGGSLRLSCAVSDYSITSGYYWNWIRQAPGKKLEWMGYISYDGSNNHNPSLKNGRITISRDTSKNTFYLQMNSLRAEDTAVYYCARGEGFYFDSWGQGTLVTVSS
VL: EIVLTQSPGTLSLSPGERATLSCKSSQSLFFGSTQKNYLAWYQQKPGQAPRLLIYWASTRESGIPDRFSGSGSGTDFTLTISRLEPEDFAVYYCQQYYNYPWTFGQGTKLEIK
B11: MYT5465 (antibody, V domains shown)
VH: EVQLLESGGGLVQPGGSLRLSCAVSDYSITSGYYWNWIRQAPGKKLEWMGYISYDGSNNYHPSLKNGRITISRDTSKNTFYLQMNSLRAEDTAVYYCARGEGFYFDSWGQGTLVTVSS
VL: EIVLTQSPGTLSLSPGERATLSCKSSQSLFFGSTQKNYLAWYQQKPGQAPRLLIYWASTRESGIPDRFSGSGSGTDFTLTISRLEPEDFAVYYCQQYYNYPWTFGQGTKLEIK
B12: MYT5466 (antibody, V domains shown)
VH: EVQLLESGGGLVQPGGSLRLSCAVSDYSITSGYYWNWIRQAPGKKLEWMGYISYDGSNNYNHSLKNGRITISRDTSKNTFYLQMNSLRAEDTAVYYCARGEGFYFDSWGQGTLVTVSS
VL: EIVLTQSPGTLSLSPGERATLSCKSSQSLFFGSTQKNYLAWYQQKPGQAPRLLIYWASTRESGIPDRFSGSGSGTDFTLTISRLEPEDFAVYYCQQYYNYPWTFGQGTKLEIK
B13: MYT5467 (antibody, V domains shown)
VH: EVQLLESGGGLVQPGGSLRLSCAVSDYSITSGYYWNWIRQAPGKKLEWMGYISYDGSNNYNPHLKNGRITISRDTSKNTFYLQMNSLRAEDTAVYYCARGEGFYFDSWGQGTLVTVSS
VL: EIVLTQSPGTLSLSPGERATLSCKSSQSLFFGSTQKNYLAWYQQKPGQAPRLLIYWASTRESGIPDRFSGSGSGTDFTLTISRLEPEDFAVYYCQQYYNYPWTFGQGTKLEIK
B14: MYT5468 (antibody, V domains shown)
VH: EVQLLESGGGLVQPGGSLRLSCAVSDYSITSGYYWNWIRQAPGKKLEWMGYISYDGSNNYNPSHKNGRITISRDTSKNTFYLQMNSLRAEDTAVYYCARGEGFYFDSWGQGTLVTVSS
VL: EIVLTQSPGTLSLSPGERATLSCKSSQSLFFGSTQKNYLAWYQQKPGQAPRLLIYWASTRESGIPDRFSGSGSGTDFTLTISRLEPEDFAVYYCQQYYNYPWTFGQGTKLEIK
B15: MYT5469 (antibody, V domains shown)
VH: EVQLLESGGGLVQPGGSLRLSCAVSDYSITSGYYWNWIRQAPGKKLEWMGYISYDGSNNYNPSLHNGRITISRDTSKNTFYLQMNSLRAEDTAVYYCARGEGFYFDSWGQGTLVTVSS
VL: EIVLTQSPGTLSLSPGERATLSCKSSQSLFFGSTQKNYLAWYQQKPGQAPRLLIYWASTRESGIPDRFSGSGSGTDFTLTISRLEPEDFAVYYCQQYYNYPWTFGQGTKLEIK
B16: MYT5470 (antibody, V domains shown)
VH: EVQLLESGGGLVQPGGSLRLSCAVSDYSITSGYYWNWIRQAPGKKLEWMGYISYDGSNNYNPSLKHGRITISRDTSKNTFYLQMNSLRAEDTAVYYCARGEGFYFDSWGQGTLVTVSS
VL: EIVLTQSPGTLSLSPGERATLSCKSSQSLFFGSTQKNYLAWYQQKPGQAPRLLIYWASTRESGIPDRFSGSGSGTDFTLTISRLEPEDFAVYYCQQYYNYPWTFGQGTKLEIK
B17: MYT5471 (antibody, V domains shown)
VH: EVQLLESGGGLVQPGGSLRLSCAVSDYSITSGYYWNWIRQAPGKKLEWMGYISYDGSNNYNPSLKNHRITISRDTSKNTFYLQMNSLRAEDTAVYYCARGEGFYFDSWGQGTLVTVSS
VL: EIVLTQSPGTLSLSPGERATLSCKSSQSLFFGSTQKNYLAWYQQKPGQAPRLLIYWASTRESGIPDRFSGSGSGTDFTLTISRLEPEDFAVYYCQQYYNYPWTFGQGTKLEIK
B18: MYT5479 (antibody, V domains shown)
VH: EVQLLESGGGLVQPGGSLRLSCAVSDYSITSGYYWNWIRQAPGKKLEWMGYISYDGSNNYNPSLKNGRITISRDTSKNTFYLQMNSLRAEDTAVYYCARGEGFYHDSWGQGTLVTVSS
VL: EIVLTQSPGTLSLSPGERATLSCKSSQSLFFGSTQKNYLAWYQQKPGQAPRLLIYWASTRESGIPDRFSGSGSGTDFTLTISRLEPEDFAVYYCQQYYNYPWTFGQGTKLEIK
B19: MYT5480 (antibody, V domains shown)
VH: EVQLLESGGGLVQPGGSLRLSCAVSDYSITSGYYWNWIRQAPGKKLEWMGYISYDGSNNYNPSLKNGRITISRDTSKNTFYLQMNSLRAEDTAVYYCARGEGFYFHSWGQGTLVTVSS
VL: EIVLTQSPGTLSLSPGERATLSCKSSQSLFFGSTQKNYLAWYQQKPGQAPRLLIYWASTRESGIPDRFSGSGSGTDFTLTISRLEPEDFAVYYCQQYYNYPWTFGQGTKLEIK
B20: MYT5481 (antibody, V domains shown)
VH: EVQLLESGGGLVQPGGSLRLSCAVSDYSITSGYYWNWIRQAPGKKLEWMGYISYDGSNNYNPSLKNGRITISRDTSKNTFYLQMNSLRAEDTAVYYCARGEGFYFDHWGQGTLVTVSS
VL: EIVLTQSPGTLSLSPGERATLSCKSSQSLFFGSTQKNYLAWYQQKPGQAPRLLIYWASTRESGIPDRFSGSGSGTDFTLTISRLEPEDFAVYYCQQYYNYPWTFGQGTKLEIK

Molecular target: T1, CD123 protein (R&D Systems Catalog No. 301-R3-025/CF) (Homo sapiens (Human))
Test: BLI, IgG on anti-human Fc sensor, 50 nM CD123, pH 7.4 and pH 5.4

binding, binds:
B1
B2
B3
B4
B5
B6
B7
B8
B9
B10
B11
B12
B13
B14
B15
B16
B17
B18
B19
B20
